# US20240207323A1, “METHOD FOR TREATING ACUTE RESPIRATORY DISTRESS SYNDROME (ARDS) USING M[…] PRECURSOR OR STEM CELLS” (priority 2021, published 2024)
# At least one compound was matched to its structure with a doubt left.
# Test system: COVID-19 related ARDS
# Format: in vivo, human
# Details: day 60
compound,measurement,setting,value
C[C@@H]1C[C@H]2[C@@H]3CCC4=CC(=O)C=C[C@]4(C)[C@@]3(F)[C@@H](O)C[C@]2(C)[C@@]1(O)C(=O)CO [dexamethasone],mortality in control patients given dexamethasone at baseline,control ITT patients <65 (p=0.554) and ≥65 years (p=0.815),does not reduce mortality
same,protection against death,patients <65 years,No protection
